The values below come from the supplement of paper PMC10849652.

Chains of the proteins cited; added tags and fusions are not shown. Lines headed by an entry give the natural chain unless they say otherwise; changes in a name come on top.
UniProt Q8N5Y2: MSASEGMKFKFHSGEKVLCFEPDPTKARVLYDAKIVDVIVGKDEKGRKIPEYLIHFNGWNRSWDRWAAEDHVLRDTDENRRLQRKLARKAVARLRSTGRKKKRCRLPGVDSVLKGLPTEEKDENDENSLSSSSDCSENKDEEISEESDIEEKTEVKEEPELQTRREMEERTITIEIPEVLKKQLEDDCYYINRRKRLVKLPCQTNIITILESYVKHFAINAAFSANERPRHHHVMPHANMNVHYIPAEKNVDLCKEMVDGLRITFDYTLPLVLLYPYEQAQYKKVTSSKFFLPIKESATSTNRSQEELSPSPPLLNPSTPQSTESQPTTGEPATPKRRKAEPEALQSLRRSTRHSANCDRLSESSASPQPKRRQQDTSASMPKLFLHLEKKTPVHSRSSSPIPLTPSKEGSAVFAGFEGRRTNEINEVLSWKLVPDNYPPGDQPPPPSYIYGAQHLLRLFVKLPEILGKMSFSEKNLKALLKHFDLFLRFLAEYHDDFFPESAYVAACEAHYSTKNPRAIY
UniProt Q9UJ68: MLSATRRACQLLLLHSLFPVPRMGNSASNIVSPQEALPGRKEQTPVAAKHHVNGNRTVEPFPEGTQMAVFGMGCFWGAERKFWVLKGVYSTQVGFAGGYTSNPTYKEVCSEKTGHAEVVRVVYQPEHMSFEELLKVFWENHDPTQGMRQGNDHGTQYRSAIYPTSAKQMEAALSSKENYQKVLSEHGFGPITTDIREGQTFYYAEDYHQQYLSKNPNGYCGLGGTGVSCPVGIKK
UniProt Q2M296: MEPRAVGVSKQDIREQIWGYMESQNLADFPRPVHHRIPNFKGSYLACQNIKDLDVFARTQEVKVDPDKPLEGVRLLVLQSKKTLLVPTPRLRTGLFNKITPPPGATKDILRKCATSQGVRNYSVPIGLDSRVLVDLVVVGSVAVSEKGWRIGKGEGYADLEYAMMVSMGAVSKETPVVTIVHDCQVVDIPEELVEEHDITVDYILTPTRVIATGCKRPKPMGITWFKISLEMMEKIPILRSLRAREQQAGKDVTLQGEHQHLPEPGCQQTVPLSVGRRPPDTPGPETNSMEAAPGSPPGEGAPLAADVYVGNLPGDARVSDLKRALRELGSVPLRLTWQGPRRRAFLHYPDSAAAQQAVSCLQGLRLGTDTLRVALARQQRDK

Holding throughout (assay): log2 fold change, soluble protein after heating vs DMSO (PISA); higher = thermal stabilisation; K562 lysate, 10 uM; active = over 0.2 and 3.5 SD of the protein, either way, in both replicates (recomputed)
Compound in test [1]: CCCS(=O)(=O)Nc1ccc(F)c(C(=O)c2c[nH]c3ncc(-c4ccc(Cl)cc4)cc23)c1F [vemurafenib]
In short, it runs like this: (§1)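 A 30 min treatment with 10 μM compound was applied to crude K562 extract at 1 mg/mL protein in PBS pH 7.4 with 1 mM MgCl2. Heating for 3 min spanned 48°C-58°C, after which aliquots were pooled, adjusted to 0.5% NP-40 at 4°C and spun at 21,000xg for 90 min. TMTpro 16plex LC-MS/MS of the supernatant, with channel sums equalised, gave values recorded as log-two fold change in thermal stability against solvent controls, from duplicates.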

Compound in test [2]: CC[C@@H]1C(=O)N(C)c2cnc(Nc3ccc(C(=O)NC4CCN(C)CC4)cc3OC)nc2N1C1CCCC1
In short, it runs like this: as §1

Compound in test [3]: CCn1c(C(=O)N(C2CC2)C2CC2)cc2c3c(ncn3C)c(Nc3cc(C)n(C)n3)nc21
In short, it runs like this:
as §1

Compound in test [4]: CCn1cc(-c2ccnc3[nH]c(-c4cccc(CN(C)C)c4)cc23)c(-c2ccc(NC(=O)N(C)C)cc2)n1
In short, it runs like this:
as §1

Compound in test [5]: CN1CCC(CNc2ccc3ncc(-c4cccc(OC(F)(F)F)c4)n3n2)CC1
In short, it runs like this:
as §1

Compound in test [6]: CN1CCN(CCOc2cc(OC3CCOCC3)c3c(Nc4c(Cl)ccc5c4OCO5)ncnc3c2)CC1 [saracatinib]
In short, it runs like this:
as §1

Compound in test [7]: CN1CCN(c2nc(C3=C(c4c[nH]c5ccccc45)C(=O)NC3=O)c3ccccc3n2)CC1 [sotrastaurin]
In short, it runs like this:
as §1

Compound in test [8]: CN1CC[C@H](c2c(O)cc(O)c3c(=O)cc(-c4ccccc4Cl)oc23)[C@H](O)C1 [alvocidib]
In short, it runs like this: as §1

Compound in test [9]: CN1CCc2c(c3ccccc3n2Cc2ccc(C(=O)NO)cc2)C1 [Tubastatin A]
In short, it runs like this: as §1

Compound in test [10]: CNC(=O)C1=CC=CC=C1NC2=NC(=NC=C2Cl)NC3=C(C=C(C=C3)N4CCOCC4)OC
In short, it runs like this:
as §1

Compound in test [11]: CNC(=O)c1ccc(Nc2ncc(C(F)(F)F)c(NCc3nccnc3N(C)S(C)(=O)=O)n2)cc1 [defactinib]
In short, it runs like this: as §1

Compound in test [12]: CNc1nc(-c2ccc3c(N)n[nH]c3c2)cc(N2C[C@@H](C(=O)NC3CCCCC3)CC[C@H]2C)n1
In short, it runs like this:
as §1

Compound in test [13]: COC(=O)N[C@@H](C)CNc1nccc(-c2cn(C(C)C)nc2-c2cc(Cl)cc(NS(C)(=O)=O)c2F)n1 [encorafenib]
In short, it runs like this: as §1

Compound in test [14]: COC(=O)[C@H](CCSC)NC(=O)C1=C(C=C(C=C1)NC[C@H](CS)N)C2=CC=CC=C2
In short, it runs like this: as §1

Compound in test [15]: COc1cc(Nc2ncc3c(n2)-c2ccc(Cl)cc2C(c2c(F)cccc2OC)=NC3)ccc1C(=O)O [alisertib]
In short, it runs like this:
as §1

Compound in test [16]: COc1cc2ncnc(Nc3ccc(F)c(Cl)c3)c2cc1OCCCN1CCOCC1 [gefitinib]
In short, it runs like this: as §1

Compound in test [17]: CCCS(=O)(=O)Nc1ccc(F)c(C(=O)c2c[nH]c3ncc(Cl)cc23)c1F
In short, it runs like this: as §1

Compound in test [18]: CC[C@@H]1C(=O)N(C)c2cnc(Nc3ccc(C(=O)N[C@H]4CC[C@H](N5CCN(CC6CC6)CC5)CC4)cc3OC)nc2N1C(C)C [volasertib]
In short, it runs like this:
as §1

Compound in test [19]: COc1cc2nc(-c3cc(F)ccc3O)nc(N[C@@H]3CNC[C@H]3C(C)(C)O)c2cc1OC
In short, it runs like this: as §1

Compound in test [20]: CCN(CCCOc1ccc2c(Nc3cc(CC(=O)Nc4cccc(F)c4)[nH]n3)ncnc2c1)CCOP(=O)(O)O [barasertib]
In short, it runs like this:
as §1

The other results are listed elsewhere or left out.

On to MSL3 (UniProt Q8N5Y2), for which the log2 fold change was inactive: -0.015 in [1]; inactive: -0.123 in [2]; inactive: -0.089 in test [3]; inactive: -0.018 in test [4]; inactive: 0.009 in test [5]; inactive: 0.085 in test [6]. Moreover, the log2 fold change is inactive: 0.007 in test [7]; inactive: -0.095 in test [8]; inactive: -0.009 in test [9]; inactive: -0.065 in test [10]; inactive: -0.055 in test [11]; inactive: -0.053 in [12]. Also, the log2 fold change is inactive: 0.121 in test [13], inactive: 0.011 in [14], inactive: -0.028 in test [15] and inactive: -0.008 in test [16].
For the target MSRA (UniProt Q9UJ68), the log2 fold change in test [17] is inactive: -0.039; in test [2], inactive: -0.092; in [18], inactive: -0.033; in test [4], inactive: 0.151; in test [5], inactive: -0.143; in test [8], inactive: 0.017. The log2 fold change in [13] was inactive: 0.216; in test [14] it was inactive: 0.225; in test [19], inactive: 0.08.
With MRPL27 (UniProt Q9P0M9), the log2 fold change in test [17] is inactive: -0.051; in test [20] it was inactive: -0.01; in test [2] it was inactive: 0.076; in test [18] it was inactive: 0.017; in test [3], inactive: -0.006; in test [4], active: 0.926. Moreover, the log2 fold change was inactive: -0.218 in test [5]; inactive: 0.009 in [6]; inactive: 0.05 in test [7]; inactive: 0.082 in [8]; inactive: -0.017 in test [9]; inactive: 0.016 in test [10]. The log2 fold change is inactive: -0.028 in [12]; inactive: -0.047 in test [13]; inactive: 0.008 in [14]; inactive: -0.019 in [15]; inactive: 0 in [19]; inactive: 0.022 in test [16].
In the case of MTHFSD (UniProt Q2M296), the log2 fold change is inactive: 0.086 in test [17]; inactive: 0.087 in test [20]; inactive: 0.034 in test [2]; inactive: 0.031 in test [18]; inactive: 0.05 in test [6]; inactive: -0.025 in test [7]. Besides, the log2 fold change in [10] is inactive: 0.035; in [12] it was inactive: 0.02; in [13], inactive: 0.023; in [14], inactive: -0.051; in test [15] it was inactive: 0.148; in test [19], inactive: -0.028. The log2 fold change in test [16] was inactive: -0.151.
